Measured values taken from PMC3334993.
No constants are given. Whether binding was seen depends on the method and setting. In cells and extracts the contact can be indirect. Some binding calls cover weakened binding; strength is not graded here.

Molecular target: Transcription factor p65 [NF-κB (p65)] (human (endogenous in HBMEC)), Q04206
Assay: co-IP
Details: remark: other sources report otherwise

B1: NF-kappa-B inhibitor alpha [IκBα], P25963 1-317 (protein)
chain: MFQAAERPQEWAMEGPRDGLKKERLLDDRHDSGLDSMKDEEYEQMVKELQEIRLEPQEVPRGSEPWKQQLTEDGDSFLHLAIIHEEKALTMEVIRQVKGDLAFLNFQNNLQQTPLHLAVITNQPEIAEALLGAGCDPELRDFRGNTPLHLACEQGCLASVGVLTQSCTTPHLHSILKATNYNGHTCLHLASIHGYLGIVELLVSLGADVNAQEPCNGRTALHLAVDLQNPDLVSLLLKCGADVNRVTYQGYSPYQLTWGRPSTRIQQQLGQLTLENLQMLPESEDEESYDTESEFTEFTEDELPYDDCVFGGQRLTL
With B1 the binding was “binds”.
